Earlier results in patent publication US9498464B2, “Treatment of arterial wall by combination of RAAS inhibitor and HMG-CoA reductase inhibitor” (ARTSKIN d.o.o., priority 2011, dated 2016).
At least one structure is not confirmed: it was looked up by name or label, or the drawing left a doubt.

Tested on: arterial stiffness
Conditions: 20 mg/day, 6 months, haemodialysis patients with type 2 diabetes mellitus

SMILES: CC(C)n1c(/C=C/C(O)CC(O)CC(=O)O)c(-c2ccc(F)cc2)c2ccccc21 (stereo not shown) [fluvastatin]
- arterial stiffness, as measured by PWV: reduces arterial stiffness
